# Some of the results follow. Shown are side measurements of this screen, not its main read-out; they come without a call. Compounds called inactive in the main read-out are mostly missing here. Words in brackets tell the shape of the fitted curve; partial curves, single points and poor fits give uncertain potencies.
# Assay: IkB Signaling
# Conditions: ABC-DLBCL IkBa-CBG/CBR dual luciferase ratio (green luciferase fused to IkBa over red control in OCI-Ly3 lymphoma cells), 4 h
# Outline: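 In this assay, an IκBα–CBG68 fusion accumulates when IKK-driven degradation is blocked; native CBR normalizes for cell number. OCI-Ly3 cells were treated 4 h with compound and doxycycline, then green and red light read after Chroma-Glo addition.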
# [1] = measured here: control luc red channel unless noted
# [2] = measured here: IkB-luc green channel
# [3] = measured here: control luc red channel
smiles,measurement,setting,value
Cc1cc(-c2ccc(S(=O)(=O)Nc3cccc(C)c3C)s2)on1,AC50,[1],"10 µM [rising, partial curve]"
CCOC(=O)c1c(C)[nH]c(C)c1S(=O)(=O)N1CCC(C(=O)NCc2ccc(F)cc2)CC1,AC50,[2],"5.01 µM [rising, single point]"
same,AC50,[3],"0.0794 µM [rising, full curve]"
COc1ccc(-c2c(C#N)c(SCC(=O)Nc3ccc(C)c(C)c3)nc(C)c2C(=O)Nc2ccc(Cl)cc2)cc1,AC50,[1],"10 µM [falling, partial curve]"
c1ccc(/C(=N/Nc2nc3ccccc3s2)c2ccccn2)cc1,AC50,[1],"0.0316 µM [falling, full curve]"
O=C(CSc1nnc(-c2ccccc2Br)n1-c1ccccc1)c1ccc(F)cc1,AC50,[1],"25.1 µM [falling, single point]"
CC(C)Cn1c(N)c(C(=O)NCC2CCCO2)c2nc3ccccc3nc21 (stereo unspecified),AC50,[1],"15.8 µM [falling, partial curve]"
O=c1[nH]c(SCc2ccccc2)nc2c1CCCC2,AC50,[1],"1 µM [rising, full curve, poor fit]"
CC(C)(C)C1CCc2nc(NC(=O)c3cccc(Cl)c3)sc2C1 (stereo unspecified),AC50,[1],"1.26 µM [rising, partial curve]"
Cn1nnnc1SCCCNCc1cc(Br)ccc1OCc1ccccc1,AC50,[1],"12.6 µM [falling, partial curve]"
Cc1nc2sccn2c(=O)c1S(=O)(=O)Nc1ccc(N2CCN(C)CC2)cc1,AC50,[1],"25.1 µM [falling, single point]"
N#CC1=C(N)S[C@H](C(=O)C23CC4CC(CC(C4)C2)C3)[C@H]1c1ccncc1,AC50,[1],"25.1 µM [falling, partial curve]"
CCCc1cnc2c(c1SCc1cccc(C)c1)c(=O)n(C)c(=O)n2C,AC50,[1],"6.31 µM [falling, single point]"
COc1cc(OC)c(NC(=O)c2sc3nc4n(c(=O)c3c2C)CCCC4)cc1Cl,AC50,[1],"12.6 µM [falling, partial curve]"
CCN(CC)S(=O)(=O)c1ccc2nc(NC(=O)c3cccs3)sc2c1,AC50,[1],"12.6 µM [falling, partial curve]"
COc1ccc(S(=O)(=O)NCCc2sc(C)nc2C)cc1,AC50,[1],"0.00631 µM [rising, full curve, poor fit]"
COc1ccc(-n2c(-c3ccccc3F)nc3c(cnn3-c3ccc(C)cc3)c2=O)cc1,AC50,[1],"5.01 µM [falling, partial curve]"
Cc1ccc(CCNC(=O)CN2C(=O)COc3ccc(S(=O)(=O)N4CCCC4)cc32)cc1,AC50,[1],"0.0501 µM [falling, full curve, poor fit]"
CCCCC(=O)N1CC(=O)Nc2ccc(F)cc2C1c1ccc(F)cc1 (stereo unspecified),AC50,[1],"2 µM [falling, full curve, poor fit]"
CCn1c(CNC(=O)C23CC4CC(CC(C4)C2)C3)nnc1SCC(=O)Nc1ccc(C)cc1,AC50,[1],"25.1 µM [falling, single point]"
CC(C)(C)n1nnnc1C(c1cc2cc3c(cc2[nH]c1=O)OCO3)N1CCN(c2ccccc2)CC1 (stereo unspecified),AC50,[1],"12.6 µM [falling, partial curve]"
O=C1CC(SCc2nc3ccccc3[nH]2)C(=O)N1c1ccc(F)cc1 (stereo unspecified),AC50,[1],"6.31 µM [falling, partial curve]"
Cc1ccc2c(Sc3ccccc3)c(C(=O)NCc3ccccc3F)[nH]c2c1,AC50,[1],"0.00794 µM [rising, full curve]"
CCOc1ccccc1NC(=O)CSc1nc2ccccc2nc1Cc1ccc(C)cc1,AC50,[1],"10 µM [falling, partial curve]"
CCn1nc(C)c(NC(=O)CCCSc2nc(-c3ccco3)cc(C(F)(F)F)n2)c1C,AC50,[1],"20 µM [falling, partial curve]"
CC(=O)c1ccc(NC(=O)c2sc(-n3nc(C)c(CCC(C)C)c3C)nc2C)cc1,AC50,[1],"10 µM [falling, partial curve]"
CC(=O)N1CCCC1c1nc2ccccc2n1Cc1c(F)cccc1Cl (stereo unspecified),AC50,[1],"15.8 µM [falling, single point]"
CCc1ccc(OCC(=O)Nc2ccc(S(=O)(=O)Nc3onc(C)c3C)cc2)cc1,AC50,[1],"5.01 µM [falling, partial curve]"
COC(=O)/C=C\c1cc(O)ccc1O,AC50,[2],"39.8 µM [rising, partial curve, poor fit]"
same,AC50,[3],"39.8 µM [falling, single point]"
Cc1ccccc1NC(=O)Nc1csc2c1CCCC2,AC50,[1],"15.8 µM [falling, partial curve]"
COc1ccc2nc(NC(=O)C3CCCN(S(=O)(=O)c4cccs4)C3)sc2c1 (stereo unspecified),AC50,[1],"15.8 µM [falling, partial curve]"
CCOc1ccc(CN2C(=O)c3ccccc3Sc3ccc(C(=O)NCc4ccc5c(c4)OCO5)cc32)cc1,AC50,[1],"0.794 µM [falling, full curve]"
COc1ccc(C2C(C(=O)Nc3ccccc3)=C(C)Nc3nc(-c4ccccc4)nn32)c(OC)c1 (stereo unspecified),AC50,[1],"15.8 µM [falling, partial curve]"
Cc1cccc(NC(=O)Cn2c(=O)n(CCc3ccccc3)c(=O)c3ccccc32)c1,AC50,[1],"10 µM [falling, partial curve, poor fit]"
CN(C)c1ccc(NC(=O)c2cccc(N3C(=O)C4C5C=CC(C5)C4C3=O)c2)cc1 (stereo unspecified),AC50,[1],"12.6 µM [falling, partial curve]"
Cc1cccc(N2CCN(C(=O)C3CCCN(S(=O)(=O)c4c(C)noc4C)C3)CC2)c1C (stereo unspecified),AC50,[1],"15.8 µM [falling, partial curve]"
O=C(Cn1c(=O)n(Cc2ccco2)c(=O)c2oc3ccccc3c21)Nc1ccc(F)cc1F,AC50,[1],"10 µM [falling, partial curve]"
CCC(Sc1nnc(C)n2c1cc1occc12)C(=O)Nc1ccccc1F (stereo unspecified),AC50,[1],"25.1 µM [falling, single point]"
Cn1c(=O)n(C)c2cc(NS(=O)(=O)c3ccccc3)c(NCc3ccccc3)cc21,AC50,[1],"20 µM [falling, single point]"
CCOC(=O)c1cnc2sc3c(n2c1=O)CCCC3,AC50,[1],"1.58 µM [falling, partial curve]"

# At a glance, some entries already given:
smiles,measurement,setting,value
N#CC1=C(N)S[C@H](C(=O)C23CC4CC(CC(C4)C2)C3)[C@H]1c1ccncc1,AC50,[1],"25.1 µM [falling, partial curve]"
CCCc1cnc2c(c1SCc1cccc(C)c1)c(=O)n(C)c(=O)n2C,AC50,[1],"6.31 µM [falling, single point]"

# Reference: PubChem BioAssay AID445 (National Center for Advancing Translational Sciences (NCATS), 2006)
